Data from the supplement of paper PMC10849652.
The list shows a part of the results.

Amino acid sequences for entries named in this document (tags omitted). A change or cut given only in a name is not applied to a line headed by its entry.
UniProt Q7Z6K3: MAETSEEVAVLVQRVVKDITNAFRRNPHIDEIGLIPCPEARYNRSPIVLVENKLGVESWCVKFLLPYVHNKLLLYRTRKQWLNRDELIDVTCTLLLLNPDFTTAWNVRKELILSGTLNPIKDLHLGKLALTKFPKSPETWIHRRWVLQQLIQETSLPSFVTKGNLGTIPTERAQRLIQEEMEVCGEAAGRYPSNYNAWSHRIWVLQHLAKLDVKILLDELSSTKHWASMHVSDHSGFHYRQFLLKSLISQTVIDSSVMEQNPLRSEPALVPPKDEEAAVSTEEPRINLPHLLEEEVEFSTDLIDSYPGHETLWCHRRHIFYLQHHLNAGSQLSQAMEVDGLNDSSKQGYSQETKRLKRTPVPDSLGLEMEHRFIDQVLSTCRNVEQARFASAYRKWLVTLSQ
UniProt O75475: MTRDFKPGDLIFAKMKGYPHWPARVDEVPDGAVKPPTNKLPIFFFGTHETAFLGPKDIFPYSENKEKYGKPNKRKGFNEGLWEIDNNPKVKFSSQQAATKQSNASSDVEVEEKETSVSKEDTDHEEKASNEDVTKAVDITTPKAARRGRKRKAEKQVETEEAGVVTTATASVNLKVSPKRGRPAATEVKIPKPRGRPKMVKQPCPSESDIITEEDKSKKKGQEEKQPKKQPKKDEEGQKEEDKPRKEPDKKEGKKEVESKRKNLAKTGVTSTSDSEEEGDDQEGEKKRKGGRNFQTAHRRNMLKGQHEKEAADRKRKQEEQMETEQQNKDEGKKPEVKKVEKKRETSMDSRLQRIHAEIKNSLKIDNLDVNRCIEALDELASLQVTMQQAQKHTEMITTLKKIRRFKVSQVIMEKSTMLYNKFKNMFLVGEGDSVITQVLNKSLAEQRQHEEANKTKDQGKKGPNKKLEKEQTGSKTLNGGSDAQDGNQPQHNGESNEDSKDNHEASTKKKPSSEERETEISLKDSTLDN
UniProt P25789: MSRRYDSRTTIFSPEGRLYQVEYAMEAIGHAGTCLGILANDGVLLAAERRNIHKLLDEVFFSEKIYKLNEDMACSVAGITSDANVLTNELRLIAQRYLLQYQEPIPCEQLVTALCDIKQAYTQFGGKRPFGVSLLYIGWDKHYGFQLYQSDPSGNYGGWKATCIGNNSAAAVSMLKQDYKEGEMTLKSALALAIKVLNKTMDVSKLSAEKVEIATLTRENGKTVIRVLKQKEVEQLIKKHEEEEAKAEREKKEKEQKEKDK
UniProt Q8TAA3: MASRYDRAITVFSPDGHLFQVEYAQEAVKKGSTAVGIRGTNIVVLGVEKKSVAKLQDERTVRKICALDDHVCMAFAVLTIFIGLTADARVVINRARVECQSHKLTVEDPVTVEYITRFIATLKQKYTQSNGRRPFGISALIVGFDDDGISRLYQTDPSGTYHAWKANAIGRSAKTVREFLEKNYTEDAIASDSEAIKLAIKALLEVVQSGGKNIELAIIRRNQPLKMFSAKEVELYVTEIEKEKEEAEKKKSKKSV
UniProt P28072: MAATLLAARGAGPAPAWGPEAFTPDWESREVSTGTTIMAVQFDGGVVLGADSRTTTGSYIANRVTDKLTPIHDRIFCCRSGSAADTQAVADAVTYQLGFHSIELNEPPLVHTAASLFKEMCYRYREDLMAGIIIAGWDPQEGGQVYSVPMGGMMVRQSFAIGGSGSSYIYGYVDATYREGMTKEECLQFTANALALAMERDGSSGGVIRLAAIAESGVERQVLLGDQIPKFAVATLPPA
UniProt Q86TP1: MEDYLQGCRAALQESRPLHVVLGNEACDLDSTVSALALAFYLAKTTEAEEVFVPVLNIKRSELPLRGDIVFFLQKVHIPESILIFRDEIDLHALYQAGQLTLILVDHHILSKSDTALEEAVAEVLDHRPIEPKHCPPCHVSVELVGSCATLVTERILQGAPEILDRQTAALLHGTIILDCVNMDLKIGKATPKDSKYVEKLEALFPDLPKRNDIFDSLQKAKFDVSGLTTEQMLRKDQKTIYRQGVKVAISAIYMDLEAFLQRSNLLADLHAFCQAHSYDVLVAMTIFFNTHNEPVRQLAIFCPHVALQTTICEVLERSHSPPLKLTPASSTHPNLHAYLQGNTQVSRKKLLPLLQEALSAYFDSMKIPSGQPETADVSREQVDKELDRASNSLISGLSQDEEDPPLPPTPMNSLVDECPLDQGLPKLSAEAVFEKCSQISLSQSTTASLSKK
UniProt Q9Y606: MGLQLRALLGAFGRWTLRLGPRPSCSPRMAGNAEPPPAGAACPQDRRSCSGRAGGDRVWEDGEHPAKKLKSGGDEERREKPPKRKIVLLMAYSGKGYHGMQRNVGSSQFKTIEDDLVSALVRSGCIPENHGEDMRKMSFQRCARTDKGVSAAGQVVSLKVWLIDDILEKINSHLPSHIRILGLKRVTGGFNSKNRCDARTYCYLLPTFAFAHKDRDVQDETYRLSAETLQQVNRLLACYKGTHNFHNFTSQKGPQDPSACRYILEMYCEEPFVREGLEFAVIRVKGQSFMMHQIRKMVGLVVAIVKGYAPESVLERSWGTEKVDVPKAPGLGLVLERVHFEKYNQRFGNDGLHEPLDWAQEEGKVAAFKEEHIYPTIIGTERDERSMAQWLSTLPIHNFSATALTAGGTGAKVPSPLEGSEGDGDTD
UniProt Q9UNM6: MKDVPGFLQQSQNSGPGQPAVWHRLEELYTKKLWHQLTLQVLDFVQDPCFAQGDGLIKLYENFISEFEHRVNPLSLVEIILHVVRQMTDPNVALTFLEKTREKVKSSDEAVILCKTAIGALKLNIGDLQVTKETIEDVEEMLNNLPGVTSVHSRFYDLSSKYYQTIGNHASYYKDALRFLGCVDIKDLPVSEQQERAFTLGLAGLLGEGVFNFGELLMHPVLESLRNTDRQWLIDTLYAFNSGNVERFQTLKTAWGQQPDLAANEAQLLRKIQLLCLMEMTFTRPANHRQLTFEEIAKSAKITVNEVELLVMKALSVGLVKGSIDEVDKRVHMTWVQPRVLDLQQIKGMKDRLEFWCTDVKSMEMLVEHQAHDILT
UniProt Q14671: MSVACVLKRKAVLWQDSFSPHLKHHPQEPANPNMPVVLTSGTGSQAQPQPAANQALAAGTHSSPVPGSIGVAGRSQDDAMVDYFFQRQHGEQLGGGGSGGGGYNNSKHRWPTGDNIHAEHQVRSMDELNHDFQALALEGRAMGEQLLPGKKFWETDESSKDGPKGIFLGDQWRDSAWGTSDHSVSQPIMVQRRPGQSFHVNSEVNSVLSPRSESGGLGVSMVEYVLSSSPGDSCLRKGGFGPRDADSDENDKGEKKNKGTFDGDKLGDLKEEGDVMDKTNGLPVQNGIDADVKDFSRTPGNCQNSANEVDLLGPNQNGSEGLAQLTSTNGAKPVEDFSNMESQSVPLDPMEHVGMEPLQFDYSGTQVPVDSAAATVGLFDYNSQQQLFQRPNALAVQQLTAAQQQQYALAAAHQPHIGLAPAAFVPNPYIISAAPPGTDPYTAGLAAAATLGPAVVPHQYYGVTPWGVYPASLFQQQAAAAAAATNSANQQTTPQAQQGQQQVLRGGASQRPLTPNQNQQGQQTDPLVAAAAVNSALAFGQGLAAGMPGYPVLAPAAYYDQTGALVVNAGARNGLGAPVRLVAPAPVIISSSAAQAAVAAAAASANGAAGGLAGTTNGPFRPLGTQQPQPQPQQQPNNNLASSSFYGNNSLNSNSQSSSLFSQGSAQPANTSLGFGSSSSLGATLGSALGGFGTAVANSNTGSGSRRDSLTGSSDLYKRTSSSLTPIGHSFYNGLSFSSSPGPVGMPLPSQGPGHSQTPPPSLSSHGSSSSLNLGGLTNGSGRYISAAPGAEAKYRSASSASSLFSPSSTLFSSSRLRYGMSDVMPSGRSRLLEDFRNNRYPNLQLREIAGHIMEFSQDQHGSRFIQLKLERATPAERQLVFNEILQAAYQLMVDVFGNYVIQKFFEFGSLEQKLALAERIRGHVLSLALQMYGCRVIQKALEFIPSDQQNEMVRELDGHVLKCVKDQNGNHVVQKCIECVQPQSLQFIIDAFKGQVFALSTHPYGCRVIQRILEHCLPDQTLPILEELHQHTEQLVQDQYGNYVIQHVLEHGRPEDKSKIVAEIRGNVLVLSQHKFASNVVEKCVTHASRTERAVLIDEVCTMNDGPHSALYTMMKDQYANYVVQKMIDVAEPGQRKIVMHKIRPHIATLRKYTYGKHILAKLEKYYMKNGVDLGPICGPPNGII
UniProt Q15008: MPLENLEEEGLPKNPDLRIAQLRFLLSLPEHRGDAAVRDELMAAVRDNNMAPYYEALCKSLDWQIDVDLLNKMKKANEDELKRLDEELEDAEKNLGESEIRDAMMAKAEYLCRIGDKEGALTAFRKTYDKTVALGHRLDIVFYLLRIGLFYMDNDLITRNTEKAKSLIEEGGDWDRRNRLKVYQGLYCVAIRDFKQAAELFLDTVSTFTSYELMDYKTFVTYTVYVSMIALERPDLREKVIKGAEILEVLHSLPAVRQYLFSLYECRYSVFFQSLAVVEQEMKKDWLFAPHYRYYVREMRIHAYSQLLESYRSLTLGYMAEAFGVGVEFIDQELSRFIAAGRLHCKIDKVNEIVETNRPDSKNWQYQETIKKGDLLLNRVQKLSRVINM
UniProt P49720: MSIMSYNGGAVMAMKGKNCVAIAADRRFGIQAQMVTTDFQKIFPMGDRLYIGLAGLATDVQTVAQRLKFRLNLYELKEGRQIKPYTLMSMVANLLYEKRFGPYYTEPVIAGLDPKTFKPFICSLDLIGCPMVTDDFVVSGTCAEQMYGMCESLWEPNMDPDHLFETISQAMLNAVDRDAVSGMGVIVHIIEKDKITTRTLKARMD
UniProt Q16401: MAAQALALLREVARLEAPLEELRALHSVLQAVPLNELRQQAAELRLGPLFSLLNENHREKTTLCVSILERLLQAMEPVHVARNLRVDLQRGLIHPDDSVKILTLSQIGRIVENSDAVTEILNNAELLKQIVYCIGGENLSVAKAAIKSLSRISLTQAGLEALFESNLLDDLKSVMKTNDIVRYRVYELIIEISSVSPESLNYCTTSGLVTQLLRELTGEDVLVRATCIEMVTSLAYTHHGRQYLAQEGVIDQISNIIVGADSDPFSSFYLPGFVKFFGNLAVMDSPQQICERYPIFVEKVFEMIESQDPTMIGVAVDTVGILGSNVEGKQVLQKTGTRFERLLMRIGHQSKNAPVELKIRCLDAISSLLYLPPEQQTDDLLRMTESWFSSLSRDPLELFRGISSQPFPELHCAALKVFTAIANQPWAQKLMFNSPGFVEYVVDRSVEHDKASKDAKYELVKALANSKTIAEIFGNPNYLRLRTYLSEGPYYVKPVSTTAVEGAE
UniProt Q7Z7A4: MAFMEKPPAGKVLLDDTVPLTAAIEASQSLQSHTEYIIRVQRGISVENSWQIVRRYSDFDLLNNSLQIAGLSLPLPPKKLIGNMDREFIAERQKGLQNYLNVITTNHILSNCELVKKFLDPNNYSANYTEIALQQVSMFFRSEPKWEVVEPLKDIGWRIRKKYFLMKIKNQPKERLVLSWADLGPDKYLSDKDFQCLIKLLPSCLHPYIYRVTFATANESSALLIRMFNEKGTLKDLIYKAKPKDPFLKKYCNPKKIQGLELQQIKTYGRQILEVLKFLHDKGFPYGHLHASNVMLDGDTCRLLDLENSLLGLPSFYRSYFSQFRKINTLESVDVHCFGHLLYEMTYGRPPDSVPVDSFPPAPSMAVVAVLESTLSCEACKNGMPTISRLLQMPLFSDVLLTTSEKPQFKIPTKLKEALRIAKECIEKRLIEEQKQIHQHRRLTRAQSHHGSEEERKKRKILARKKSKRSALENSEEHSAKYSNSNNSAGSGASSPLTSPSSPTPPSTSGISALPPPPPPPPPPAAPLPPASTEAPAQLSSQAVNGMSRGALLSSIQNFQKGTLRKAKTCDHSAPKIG
UniProt Q8WU10: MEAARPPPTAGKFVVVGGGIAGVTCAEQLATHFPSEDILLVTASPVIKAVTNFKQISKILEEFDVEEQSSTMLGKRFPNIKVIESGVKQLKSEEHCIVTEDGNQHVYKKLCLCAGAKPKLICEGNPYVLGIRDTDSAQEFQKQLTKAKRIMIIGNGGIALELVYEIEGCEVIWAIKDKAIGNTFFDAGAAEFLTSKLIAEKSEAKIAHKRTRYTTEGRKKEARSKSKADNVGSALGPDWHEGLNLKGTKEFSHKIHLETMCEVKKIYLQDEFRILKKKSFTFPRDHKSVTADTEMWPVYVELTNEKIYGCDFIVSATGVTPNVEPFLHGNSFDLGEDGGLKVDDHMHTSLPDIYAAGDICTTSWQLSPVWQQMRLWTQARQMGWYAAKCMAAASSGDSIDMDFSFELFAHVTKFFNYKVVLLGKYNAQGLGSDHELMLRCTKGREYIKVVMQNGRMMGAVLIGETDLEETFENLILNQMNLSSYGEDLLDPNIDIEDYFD
UniProt P53801: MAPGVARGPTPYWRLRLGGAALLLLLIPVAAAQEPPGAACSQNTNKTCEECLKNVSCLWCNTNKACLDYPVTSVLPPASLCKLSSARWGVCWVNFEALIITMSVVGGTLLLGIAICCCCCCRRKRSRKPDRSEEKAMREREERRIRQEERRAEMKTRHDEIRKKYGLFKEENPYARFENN

How the values were obtained:
Assay in all cases: log2 fold change, soluble protein after heating vs DMSO (PISA); higher = thermal stabilisation; K562 cells, 10 uM, 30 min; active = over 0.2 and 3.5 SD of the protein, either way, in both replicates (recomputed)
[1] = compound: CS(=O)(=O)c1ccc(-c2cnc(N)c(C(=O)Nc3ccccc3)n2)cc1
Summary of the method: (§1)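 K562 cells (2×10^6 cells/mL) were treated with 10 μM compound for 30 min, and aliquots were heated for 3 min over 48°C-58°C. Pooled aliquots were extracted in PBS with 0.5% NP-40 at 4°C, and the supernatant after 21,000xg for 90 min was measured by TMTpro 16plex LC-MS/MS with channel sums equalised. Reported thermal stability, relative to control samples and from duplicates, is a log2 fold change.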

crizotinib = compound: C[C@@H](Oc1cc(-c2cnn(C3CCNCC3)c2)cnc1N)c1c(Cl)ccc(F)c1Cl [crizotinib]
Summary of the method: as §1

[2] = compound: C[C@@H]1COCCN1C2=NC(=NC(=C2)C3(CC3)S(=O)(=O)C)C4=C5C=CNC5=CC=C4
Summary of the method: as §1

[3] = compound: C[C@H](C1=CC=C(C=C1)C(=O)NC2=C3C=CNC3=NC=C2)N
Summary of the method: as §1

duvelisib = compound: C[C@H](Nc1ncnc2nc[nH]c12)c1cc2cccc(Cl)c2c(=O)n1-c1ccccc1 [duvelisib]
Summary of the method: as §1

gandotinib = compound: Cc1cc(Nc2cc(CN3CCOCC3)c3nc(C)c(Cc4ccc(Cl)cc4F)n3n2)n[nH]1 [gandotinib]
Summary of the method: as §1

tozasertib = compound: Cc1cc(Nc2cc(N3CCN(C)CC3)nc(Sc3ccc(NC(=O)C4CC4)cc3)n2)n[nH]1 [tozasertib]
Summary of the method: as §1

[4] = compound: Cc1cc(SCc2sc(-c3ccc(C(F)(F)F)cc3)nc2C)ccc1OCC(=O)O
Summary of the method: as §1

doramapimod = compound: Cc1ccc(-n2nc(C(C)(C)C)cc2NC(=O)Nc2ccc(OCCN3CCOCC3)c3ccccc23)cc1 [doramapimod]
Summary of the method: as §1

ispinesib = compound: Cc1ccc(C(=O)N(CCCN)[C@@H](c2nc3cc(Cl)ccc3c(=O)n2Cc2ccccc2)C(C)C)cc1 [ispinesib]
Summary of the method: as §1

Measured: log2 fold change

PWP1 (UniProt Q13610)
inactive: [1] -0.04 | crizotinib 0.036 | [2] -0.583 | [3] 0.37 | duvelisib -0.277 | gandotinib 0.376 | tozasertib -0.014 | [4] -0.047 | doramapimod 0.21 | ispinesib -0.176

QSOX1 (UniProt O00391)
inactive: [1] -0.042 | crizotinib -0.019 | [2] -0.011 | [3] -0.075 | duvelisib -0.08 | gandotinib -0.007 | tozasertib -0.152 | [4] 0.108 | doramapimod -0.081 | ispinesib 0.002

PTAR1 (UniProt Q7Z6K3)
inactive: [1] 0.06 | crizotinib -0.014 | [2] 0.1 | [3] -0.098 | duvelisib 0.06 | gandotinib -0.092 | tozasertib -0.01 | [4] 0.009 | doramapimod 0.069 | ispinesib -0.028

PSMB5 (UniProt P28074)
inactive: [1] -0.047 | crizotinib 0.037 | [2] -0.067 | [3] 0.015 | duvelisib -0.086 | gandotinib 0.049 | tozasertib 0.023 | [4] -0.011 | doramapimod -0.003 | ispinesib 0.058

PSIP1 (UniProt O75475)
inactive: [1] -0.07 | crizotinib 0.014 | [2] -0.265 | [3] 0.106 | duvelisib -0.068 | gandotinib 0.041 | tozasertib 0.01 | [4] -0.02 | doramapimod 0.021 | ispinesib -0.178

PSMB1 (UniProt P20618)
inactive: [1] 0.009 | crizotinib 0.068 | [2] -0.05 | [3] 0.059 | duvelisib -0.04 | gandotinib -0.074 | tozasertib 0.005 | [4] 0.034 | doramapimod 0.021 | ispinesib 0.021

PSMA4 (UniProt P25789)
inactive: [1] -0.022 | crizotinib 0.042 | [2] -0.013 | [3] 0.073 | duvelisib -0.046 | gandotinib 0.065 | tozasertib 0.024 | [4] -0.027 | doramapimod 0.017 | ispinesib 0.012

PSMA8 (UniProt Q8TAA3)
inactive: [1] 0.005 | crizotinib 0.049 | [2] -0.05 | [3] 0.044 | duvelisib 0.007 | gandotinib 0.026 | tozasertib 0.017 | [4] 0.026 | doramapimod 0 | ispinesib 0.059

PSMD7 (UniProt P51665)
inactive: [1] 0.077 | crizotinib -0.001 | [2] -0.053 | [3] 0.072 | gandotinib 0.078 | [4] -0.003 | doramapimod 0.069 | ispinesib 0.018

PTPRC (UniProt P08575)
inactive: [1] 0.013 | crizotinib 0.156 | [2] 0.058 | [3] -0.102 | duvelisib 0.068 | gandotinib -0.035 | tozasertib -0.022 | [4] -0.006 | doramapimod 0.003 | ispinesib 0.141

PSMB6 (UniProt P28072)
inactive: [1] 0.01 | crizotinib 0.096 | [2] 0.003 | [3] 0.059 | [4] -0.029 | doramapimod 0.049 | ispinesib -0.037
active: gandotinib 0.444

PRUNE1 (UniProt Q86TP1)
inactive: [1] -0.011 | crizotinib -0.064 | [2] -0.002 | [3] -0.026 | gandotinib -0.071 | [4] 0.056 | doramapimod 0.008 | ispinesib -0.018

QTRT1 (UniProt Q9BXR0)
inactive: [1] -0.012 | crizotinib 0.035 | [2] 0.027 | [3] -0.09 | duvelisib 0.06 | gandotinib 0 | tozasertib -0.017 | [4] -0.018 | doramapimod -0.002 | ispinesib 0.022

PUS1 (UniProt Q9Y606)
inactive: [1] 0.277 | crizotinib -0.057 | [2] -0.079 | [3] 0.058 | gandotinib -0.006 | tozasertib -0.143 | doramapimod 0.265 | ispinesib -0.242

PSMD13 (UniProt Q9UNM6)
inactive: [1] 0.048 | crizotinib 0.008 | [2] -0.012 | [3] 0.092 | gandotinib -0.016 | [4] 0.052 | doramapimod 0.026 | ispinesib -0.008

PTPRN2 isoform 3 (UniProt Q92932)
inactive: [1] 0.153 | crizotinib 0.331 | [2] 0.062 | [3] 0.823 | duvelisib 0.111 | [4] -0.068 | doramapimod -0.065

PSMD8 (UniProt P48556)
inactive: [1] 0.034 | crizotinib 0.011 | [2] -0.053 | [3] 0.156 | gandotinib 0.002 | [4] 0.059 | doramapimod 0.028 | ispinesib 0.015

PUM1 isoform 3 (UniProt Q14671)
inactive: [1] 0.007 | crizotinib -0.02 | [2] -0.007 | [3] 0.071 | gandotinib -0.055 | [4] 0.007 | doramapimod -0.03 | ispinesib 0.01

PTDSS1 (UniProt P48651)
inactive: [1] -0.029 | crizotinib -0.141 | [2] -0.05 | [3] 0.209 | gandotinib -0.039 | [4] 0.105 | doramapimod 0.151 | ispinesib -0.326

PSME4 (UniProt Q14997)
inactive: [1] 0.036 | crizotinib -0.161 | [2] 0.013 | [3] 0.052 | gandotinib -0.082 | [4] 0.093 | doramapimod 0.045 | ispinesib -0.09

PSMD6 (UniProt Q15008)
inactive: [1] 0.033 | crizotinib -0.046 | [2] -0.08 | [3] 0.052 | gandotinib -0.02 | [4] 0.03 | doramapimod 0.057 | ispinesib 0.056

PSMB3 (UniProt P49720)
inactive: [1] -0.012 | crizotinib 0.107 | [2] -0.118 | [3] -0.002 | duvelisib -0.084 | gandotinib 0.002 | tozasertib 0.015 | [4] -0.014 | doramapimod 0.015 | ispinesib 0.031

2 records picked at random from the list so far, as already listed:
PUM1 isoform 3 (UniProt Q14671)
inactive: [1] 0.007 | crizotinib -0.02 | [2] -0.007 | [3] 0.071 | gandotinib -0.055 | [4] 0.007 | doramapimod -0.03 | ispinesib 0.01

PSME4 (UniProt Q14997)
inactive: [1] 0.036 | crizotinib -0.161 | [2] 0.013 | [3] 0.052 | gandotinib -0.082 | [4] 0.093 | doramapimod 0.045 | ispinesib -0.09

Carrying on.

PSMD5 (UniProt Q16401)
inactive: [1] 0.008 | crizotinib 0.006 | [2] 0.046 | [3] -0.064 | gandotinib -0.051 | [4] -0.013 | doramapimod -0.03 | ispinesib 0.03

PXK (UniProt Q7Z7A4)
inactive: [1] -0.06 | crizotinib -0.139 | [2] 0.032 | [3] -0.026 | gandotinib -0.042 | [4] 0.011 | doramapimod -0.025 | ispinesib -0.203

PYROXD1 (UniProt Q8WU10)
inactive: [1] -0.134 | crizotinib -0.086 | [2] 0.123 | [3] -0.057 | duvelisib 0.044 | tozasertib 0.029 | [4] 0.021 | doramapimod 0.024 | ispinesib 0.044

PURA (UniProt Q00577)
inactive: [1] -0.064 | crizotinib 0.03 | [2] -0.44 | [3] 0.287 | gandotinib 0.334 | [4] -0.012 | doramapimod 0.063 | ispinesib -0.143

PTGFRN (UniProt Q9P2B2)
inactive: [1] 0.068 | crizotinib 0.057 | [2] 0.063 | [3] -0.003 | gandotinib -0.023 | [4] -0.065 | doramapimod 0.001 | ispinesib 0.165

PTTG1IP (UniProt P53801)
inactive: [1] 0.043 | crizotinib 0.1 | [2] 0.102 | [3] -0.044 | gandotinib 0.094 | [4] -0.075 | doramapimod -0.106
